No constants are given. Whether binding was seen depends on the method and setting. In cells and extracts the contact can be indirect. Binding can be weak; no strength is given.
Biological target: UNC80 (Drosophila melanogaster (in adult head extracts)) (UniProt Q9VB11)
Assay: co-IP; membrane preparations of adult Drosophila head extracts, solubilised in 1% n-dodecyl-beta-D-maltopyranoside, 1% Anapoe-58 in 150 mM NaCl, 50 mM Tris pH 7.4, 1 mM EDTA; 2 ul rabbit or mouse antiserum for 1 h at room temperature, Protein-A Sepharose for 1 h at 4 C, three washes with detergents; Western blot

Amino acid sequences for entries named in this document (tags omitted). A change or cut given only in a name is not applied to a line headed by its entry.
UniProt Q9VB11: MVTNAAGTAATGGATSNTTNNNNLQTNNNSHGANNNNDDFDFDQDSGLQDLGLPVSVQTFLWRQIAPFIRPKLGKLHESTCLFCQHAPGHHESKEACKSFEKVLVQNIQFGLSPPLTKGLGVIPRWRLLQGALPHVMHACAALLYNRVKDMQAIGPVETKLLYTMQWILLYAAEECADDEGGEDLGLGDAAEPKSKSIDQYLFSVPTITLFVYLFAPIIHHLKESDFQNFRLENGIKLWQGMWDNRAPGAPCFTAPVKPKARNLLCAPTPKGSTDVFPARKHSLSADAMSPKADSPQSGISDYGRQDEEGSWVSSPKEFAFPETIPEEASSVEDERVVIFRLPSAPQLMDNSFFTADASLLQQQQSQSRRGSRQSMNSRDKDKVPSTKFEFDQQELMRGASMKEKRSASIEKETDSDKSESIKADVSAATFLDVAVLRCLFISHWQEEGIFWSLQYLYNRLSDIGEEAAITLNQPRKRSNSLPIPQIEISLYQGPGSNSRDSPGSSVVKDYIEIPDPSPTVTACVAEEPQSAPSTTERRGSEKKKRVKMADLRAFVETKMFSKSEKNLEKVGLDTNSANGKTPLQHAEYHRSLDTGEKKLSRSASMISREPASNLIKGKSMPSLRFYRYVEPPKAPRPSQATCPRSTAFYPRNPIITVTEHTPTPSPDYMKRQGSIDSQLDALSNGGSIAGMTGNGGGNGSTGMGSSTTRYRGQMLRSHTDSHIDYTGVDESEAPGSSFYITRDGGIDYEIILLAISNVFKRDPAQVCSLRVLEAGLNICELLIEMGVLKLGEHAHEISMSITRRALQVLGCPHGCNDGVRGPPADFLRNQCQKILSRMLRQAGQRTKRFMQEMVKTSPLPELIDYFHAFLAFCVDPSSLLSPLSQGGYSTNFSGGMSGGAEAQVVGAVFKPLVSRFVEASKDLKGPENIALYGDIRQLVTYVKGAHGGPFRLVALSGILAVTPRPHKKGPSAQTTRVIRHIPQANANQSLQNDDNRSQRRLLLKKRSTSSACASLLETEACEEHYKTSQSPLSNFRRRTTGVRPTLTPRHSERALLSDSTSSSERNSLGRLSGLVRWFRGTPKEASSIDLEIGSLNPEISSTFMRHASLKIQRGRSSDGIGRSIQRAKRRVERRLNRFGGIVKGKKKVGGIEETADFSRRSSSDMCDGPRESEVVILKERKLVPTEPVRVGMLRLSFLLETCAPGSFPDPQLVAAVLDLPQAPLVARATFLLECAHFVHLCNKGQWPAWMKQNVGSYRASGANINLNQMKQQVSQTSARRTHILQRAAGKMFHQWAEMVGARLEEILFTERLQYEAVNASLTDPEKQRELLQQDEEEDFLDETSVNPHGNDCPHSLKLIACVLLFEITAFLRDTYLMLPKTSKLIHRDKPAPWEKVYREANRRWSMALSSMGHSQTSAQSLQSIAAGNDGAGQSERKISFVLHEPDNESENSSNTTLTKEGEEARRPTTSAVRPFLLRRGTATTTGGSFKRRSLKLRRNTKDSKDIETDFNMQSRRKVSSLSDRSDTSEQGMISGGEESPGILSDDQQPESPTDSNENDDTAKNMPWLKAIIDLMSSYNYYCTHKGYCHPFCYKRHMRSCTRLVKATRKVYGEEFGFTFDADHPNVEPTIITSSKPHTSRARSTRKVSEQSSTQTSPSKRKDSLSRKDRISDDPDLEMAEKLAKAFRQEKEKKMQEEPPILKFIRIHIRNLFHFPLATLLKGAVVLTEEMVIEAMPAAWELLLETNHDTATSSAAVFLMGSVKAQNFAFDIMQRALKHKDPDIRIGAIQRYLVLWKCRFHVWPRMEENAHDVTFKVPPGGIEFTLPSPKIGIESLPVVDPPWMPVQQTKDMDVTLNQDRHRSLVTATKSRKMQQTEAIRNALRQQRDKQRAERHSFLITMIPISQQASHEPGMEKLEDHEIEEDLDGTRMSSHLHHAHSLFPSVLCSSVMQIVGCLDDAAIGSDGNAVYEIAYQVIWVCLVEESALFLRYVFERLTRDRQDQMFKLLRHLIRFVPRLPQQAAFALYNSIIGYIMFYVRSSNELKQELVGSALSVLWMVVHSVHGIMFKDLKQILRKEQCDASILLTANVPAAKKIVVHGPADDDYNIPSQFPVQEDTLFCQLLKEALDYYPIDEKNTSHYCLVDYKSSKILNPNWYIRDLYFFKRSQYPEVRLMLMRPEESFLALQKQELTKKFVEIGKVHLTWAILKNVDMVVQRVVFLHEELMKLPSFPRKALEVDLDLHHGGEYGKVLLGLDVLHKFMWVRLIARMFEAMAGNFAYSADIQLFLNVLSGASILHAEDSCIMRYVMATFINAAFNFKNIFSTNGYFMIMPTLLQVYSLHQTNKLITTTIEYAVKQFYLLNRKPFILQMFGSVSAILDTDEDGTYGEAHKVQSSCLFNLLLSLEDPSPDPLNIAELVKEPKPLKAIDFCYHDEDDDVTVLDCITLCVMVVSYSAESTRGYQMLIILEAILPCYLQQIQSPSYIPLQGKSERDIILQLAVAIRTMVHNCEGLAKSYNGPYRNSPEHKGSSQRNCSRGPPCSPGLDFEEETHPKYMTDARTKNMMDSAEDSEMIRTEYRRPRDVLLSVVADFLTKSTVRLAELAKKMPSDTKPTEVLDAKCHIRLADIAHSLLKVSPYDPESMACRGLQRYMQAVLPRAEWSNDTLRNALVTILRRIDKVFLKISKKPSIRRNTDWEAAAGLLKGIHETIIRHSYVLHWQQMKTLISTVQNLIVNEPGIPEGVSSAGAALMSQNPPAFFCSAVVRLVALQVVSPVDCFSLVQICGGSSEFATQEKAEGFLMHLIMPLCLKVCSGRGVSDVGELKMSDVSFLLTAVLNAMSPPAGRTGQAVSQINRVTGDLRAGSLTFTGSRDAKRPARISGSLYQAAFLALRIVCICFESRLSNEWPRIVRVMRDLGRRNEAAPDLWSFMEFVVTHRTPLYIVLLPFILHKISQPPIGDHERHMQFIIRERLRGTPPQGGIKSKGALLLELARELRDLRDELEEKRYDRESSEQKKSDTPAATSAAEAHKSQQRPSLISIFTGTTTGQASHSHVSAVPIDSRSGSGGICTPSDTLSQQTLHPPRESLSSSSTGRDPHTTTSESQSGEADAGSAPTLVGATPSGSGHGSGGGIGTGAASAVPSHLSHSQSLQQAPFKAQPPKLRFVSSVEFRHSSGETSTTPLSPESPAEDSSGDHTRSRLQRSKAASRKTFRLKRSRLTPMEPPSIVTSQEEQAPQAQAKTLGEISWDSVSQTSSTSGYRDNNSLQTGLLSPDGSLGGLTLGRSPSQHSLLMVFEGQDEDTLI
UniProt E1JIP9: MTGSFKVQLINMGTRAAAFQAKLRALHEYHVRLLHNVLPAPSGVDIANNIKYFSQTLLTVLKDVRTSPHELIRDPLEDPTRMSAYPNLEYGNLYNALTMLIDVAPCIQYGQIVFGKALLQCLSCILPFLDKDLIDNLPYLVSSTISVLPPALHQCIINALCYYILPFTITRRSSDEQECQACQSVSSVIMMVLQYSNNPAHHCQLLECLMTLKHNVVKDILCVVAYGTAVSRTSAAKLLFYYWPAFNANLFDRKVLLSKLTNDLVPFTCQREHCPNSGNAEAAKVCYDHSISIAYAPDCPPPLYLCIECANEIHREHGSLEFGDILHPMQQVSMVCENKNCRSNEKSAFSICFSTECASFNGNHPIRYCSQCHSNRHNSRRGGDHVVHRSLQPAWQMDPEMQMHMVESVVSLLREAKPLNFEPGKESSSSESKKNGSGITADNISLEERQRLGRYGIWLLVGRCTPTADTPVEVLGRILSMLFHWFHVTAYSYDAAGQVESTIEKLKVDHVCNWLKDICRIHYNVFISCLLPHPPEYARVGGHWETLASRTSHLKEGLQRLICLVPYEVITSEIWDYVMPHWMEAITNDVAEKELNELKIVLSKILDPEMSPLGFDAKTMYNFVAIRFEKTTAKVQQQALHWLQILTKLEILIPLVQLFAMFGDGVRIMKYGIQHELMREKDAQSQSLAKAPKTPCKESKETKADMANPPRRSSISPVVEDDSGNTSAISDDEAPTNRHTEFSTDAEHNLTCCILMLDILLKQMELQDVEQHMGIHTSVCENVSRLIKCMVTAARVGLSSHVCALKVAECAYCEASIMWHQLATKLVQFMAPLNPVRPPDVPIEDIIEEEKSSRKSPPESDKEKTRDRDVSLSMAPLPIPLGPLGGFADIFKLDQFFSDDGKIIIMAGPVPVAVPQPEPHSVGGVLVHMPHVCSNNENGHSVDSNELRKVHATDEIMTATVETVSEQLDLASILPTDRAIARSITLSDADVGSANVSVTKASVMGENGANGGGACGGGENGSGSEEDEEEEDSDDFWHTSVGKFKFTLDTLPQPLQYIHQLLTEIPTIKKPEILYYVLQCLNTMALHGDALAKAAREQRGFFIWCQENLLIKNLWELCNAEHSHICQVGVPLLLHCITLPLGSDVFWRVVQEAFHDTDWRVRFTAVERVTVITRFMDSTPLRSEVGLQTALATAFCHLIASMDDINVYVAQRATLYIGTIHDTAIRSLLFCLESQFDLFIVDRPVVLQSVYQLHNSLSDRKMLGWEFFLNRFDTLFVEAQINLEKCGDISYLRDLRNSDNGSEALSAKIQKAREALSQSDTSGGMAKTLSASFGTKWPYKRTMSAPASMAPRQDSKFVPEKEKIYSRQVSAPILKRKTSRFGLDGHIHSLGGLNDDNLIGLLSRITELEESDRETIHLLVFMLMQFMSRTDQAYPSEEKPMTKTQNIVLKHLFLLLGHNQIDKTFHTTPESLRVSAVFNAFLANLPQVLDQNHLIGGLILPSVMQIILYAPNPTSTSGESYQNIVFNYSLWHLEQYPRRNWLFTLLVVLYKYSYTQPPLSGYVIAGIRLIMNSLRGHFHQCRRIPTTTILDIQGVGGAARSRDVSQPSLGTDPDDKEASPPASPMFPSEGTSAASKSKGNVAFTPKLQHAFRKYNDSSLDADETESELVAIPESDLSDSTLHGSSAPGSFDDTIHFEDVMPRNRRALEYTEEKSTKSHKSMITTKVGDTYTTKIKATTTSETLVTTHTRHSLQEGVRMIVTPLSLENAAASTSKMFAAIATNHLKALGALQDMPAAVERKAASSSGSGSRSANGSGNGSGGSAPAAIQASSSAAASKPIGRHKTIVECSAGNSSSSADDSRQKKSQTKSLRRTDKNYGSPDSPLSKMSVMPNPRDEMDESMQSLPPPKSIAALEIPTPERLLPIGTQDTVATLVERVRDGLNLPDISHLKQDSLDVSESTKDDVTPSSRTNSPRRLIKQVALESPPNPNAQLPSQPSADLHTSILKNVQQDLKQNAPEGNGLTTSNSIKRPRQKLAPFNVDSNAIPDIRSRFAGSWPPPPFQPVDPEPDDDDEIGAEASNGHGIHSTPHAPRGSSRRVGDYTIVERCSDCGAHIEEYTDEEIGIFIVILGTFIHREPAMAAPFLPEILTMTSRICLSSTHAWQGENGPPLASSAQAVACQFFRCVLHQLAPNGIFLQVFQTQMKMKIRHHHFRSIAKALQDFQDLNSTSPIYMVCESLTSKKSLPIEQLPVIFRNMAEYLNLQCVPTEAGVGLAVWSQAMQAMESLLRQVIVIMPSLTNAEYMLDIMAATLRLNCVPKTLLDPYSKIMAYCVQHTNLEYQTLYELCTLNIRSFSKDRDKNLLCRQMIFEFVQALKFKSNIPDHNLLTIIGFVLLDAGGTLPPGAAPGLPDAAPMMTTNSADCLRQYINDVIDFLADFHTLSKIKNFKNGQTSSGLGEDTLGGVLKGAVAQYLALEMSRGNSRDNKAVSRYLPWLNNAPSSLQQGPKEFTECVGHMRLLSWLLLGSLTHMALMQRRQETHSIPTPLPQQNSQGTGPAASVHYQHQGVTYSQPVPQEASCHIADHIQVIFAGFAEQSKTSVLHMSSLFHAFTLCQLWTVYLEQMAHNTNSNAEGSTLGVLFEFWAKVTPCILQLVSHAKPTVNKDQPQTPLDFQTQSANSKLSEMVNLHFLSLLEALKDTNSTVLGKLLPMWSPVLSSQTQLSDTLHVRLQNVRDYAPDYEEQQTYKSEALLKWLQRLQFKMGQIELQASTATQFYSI

## UNC79 (from UniProt E1JIP9)
  binding: binds

From PMC3818319
